These are yes or no findings as the source states them, for the method shown. In cells and extracts the contact can be indirect. Some entries that bind do so weakly or less than the wild type. Where a sequence is shown, tags or fusion partners need not be part of it.
Target: T1, Flag-tagged GFP::NMAD-1 fusion protein (gfp::3xflag::nmad-1 transgene) (C. elegans) (UniProt Q8MNT9)
T1 sequence: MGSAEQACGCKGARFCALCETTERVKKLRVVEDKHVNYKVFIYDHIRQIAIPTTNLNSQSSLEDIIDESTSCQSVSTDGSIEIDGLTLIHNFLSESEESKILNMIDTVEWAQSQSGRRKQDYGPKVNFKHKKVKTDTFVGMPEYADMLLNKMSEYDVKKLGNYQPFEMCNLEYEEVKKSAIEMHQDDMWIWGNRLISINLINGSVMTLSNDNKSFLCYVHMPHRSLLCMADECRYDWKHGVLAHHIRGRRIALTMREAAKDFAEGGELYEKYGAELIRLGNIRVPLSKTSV
Experiment: co-IP; IP from lysate of double transgenic worms in IP-200 buffer (20 mM Tris-HCl pH 7.5, 50 mM KCl), IgG or GFP antibody; blots probed with GFP or Flag antibodies

By UniProt entry, the sequences of proteins in these tests, tags left out.
UniProt Q23670: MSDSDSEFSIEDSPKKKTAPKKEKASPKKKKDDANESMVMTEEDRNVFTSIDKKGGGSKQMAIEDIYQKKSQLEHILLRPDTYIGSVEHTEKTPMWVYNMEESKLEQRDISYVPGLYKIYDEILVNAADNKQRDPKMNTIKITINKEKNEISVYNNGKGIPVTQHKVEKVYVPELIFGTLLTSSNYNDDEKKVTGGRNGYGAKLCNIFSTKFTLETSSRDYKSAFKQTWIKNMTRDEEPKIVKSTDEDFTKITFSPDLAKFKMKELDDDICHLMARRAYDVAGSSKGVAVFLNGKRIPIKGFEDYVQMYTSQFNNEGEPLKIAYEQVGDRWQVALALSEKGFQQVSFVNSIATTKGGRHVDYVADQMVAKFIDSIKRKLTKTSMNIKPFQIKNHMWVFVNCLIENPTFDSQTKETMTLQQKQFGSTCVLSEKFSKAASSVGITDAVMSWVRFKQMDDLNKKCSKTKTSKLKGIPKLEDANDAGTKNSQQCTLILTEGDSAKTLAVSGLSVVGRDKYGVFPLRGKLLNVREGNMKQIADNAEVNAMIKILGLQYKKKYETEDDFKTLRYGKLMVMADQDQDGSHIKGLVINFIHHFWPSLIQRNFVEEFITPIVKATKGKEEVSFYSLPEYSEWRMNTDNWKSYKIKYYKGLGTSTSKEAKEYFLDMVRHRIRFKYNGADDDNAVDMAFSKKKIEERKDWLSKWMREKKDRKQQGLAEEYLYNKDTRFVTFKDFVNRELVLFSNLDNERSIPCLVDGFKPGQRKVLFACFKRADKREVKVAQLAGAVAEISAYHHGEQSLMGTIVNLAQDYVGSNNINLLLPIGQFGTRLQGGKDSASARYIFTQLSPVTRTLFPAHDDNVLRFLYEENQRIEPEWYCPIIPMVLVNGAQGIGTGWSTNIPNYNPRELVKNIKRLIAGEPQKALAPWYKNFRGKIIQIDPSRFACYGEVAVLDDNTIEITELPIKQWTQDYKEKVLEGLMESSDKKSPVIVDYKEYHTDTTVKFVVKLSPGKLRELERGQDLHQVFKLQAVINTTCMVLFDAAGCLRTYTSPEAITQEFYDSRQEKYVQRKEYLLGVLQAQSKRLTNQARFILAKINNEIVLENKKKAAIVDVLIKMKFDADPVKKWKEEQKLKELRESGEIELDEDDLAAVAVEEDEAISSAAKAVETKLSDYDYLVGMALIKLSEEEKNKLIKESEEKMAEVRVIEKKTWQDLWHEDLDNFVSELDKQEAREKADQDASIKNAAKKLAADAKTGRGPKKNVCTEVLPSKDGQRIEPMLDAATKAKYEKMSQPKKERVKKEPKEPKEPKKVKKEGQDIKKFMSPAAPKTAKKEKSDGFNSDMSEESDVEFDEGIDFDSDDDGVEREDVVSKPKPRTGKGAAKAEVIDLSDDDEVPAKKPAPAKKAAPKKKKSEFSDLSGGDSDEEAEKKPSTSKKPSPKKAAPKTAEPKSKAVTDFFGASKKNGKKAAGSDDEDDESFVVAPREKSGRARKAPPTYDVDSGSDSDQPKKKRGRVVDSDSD

binding: binds
Substance: Flag-tagged topoisomerase II (TOP-2), top-2::3xflag(av64) transgene (from UniProt Q23670 1-1520) (enzyme)

From PMC6638966, “The demethylase NMAD-1 regulates DNA replication and repair in the Caenorhabditis elegans germline” (PLoS Genetics, 2019)
